Results from one PubChem assay

From PubChem BioAssay record AID1159506 (NCATS, 2015).

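Genome-wide siRNA knockdown in TC32 Ewing sarcoma cells, comparing luciferase light from an NR0B1-promoter reporter with a CMV-promoter reporter 48 hours after transfection.
Each siRNA was applied at 20 nM.
A z-score of the log NR0B1-over-CMV signal, less the median of siRNAs with the same seed; more negative means a stronger specific loss of the NR0B1 reporter.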

This is part of the screen; most of the strongest results are not listed here.
Sequences are the guide (antisense) strand, without overhang.

siRNA,target gene,seed-corrected z-score
UUCACUCGGAGCUUCAUGG,LOC401677,-1.28
UAACGUGCAUCUGGGAAGC,PLEKHG4,-1.047
AUAGGUAUCAGUAGCUCUC,EFCAB3,0.6354
UGUUGGUAAACCAGGAUUC,DENND5A,0.5331
UGAAUUCGAAGAGCUGAGC,ZNF214,-0.2644
UAAUUUUGAAGCUCUCUCU,PPP1R14C,0.03132
UAUCCGAAUGCAGAUAGUC,SIM1,0.8498
UGUUUUAAUGGAAUCCAGC,CA2,-0.01504
AAAAUUCCCAUUAUCUGUC,RPIA,0.1424
UUCCCAUUCUGAGAGCUGC,FEZ2,-0.01
AGAAGUUGAAUUUUAACCC,LOC388820,0.66
AACUAGAAGAUCUAAAGGC,ZNF136,0.3918
UAGUGGUUAAUCCACCUGC,TP53INP1,0.1649
UCUGGUACAUCACUGCUCG,DNHD1,1.748
UGGAUUAUGAUUUAGGUGC,HSF5,-0.3955
UCUCGUUUCAGCUGGGCUC,NDUFB4,-0.1047
UAAUCAUGAACCGUUUUCC,SLC22A23,0.8702
UUCUUCAAGGGUGAAGUUC,IL22,0.07059
UCAAGCUCACUUUUCAACC,APOL1,-0.3973
UCUUGGUCUACAUCAGAUC,RNF14,-0.6154
UGAACUCCCAUUUCAUCUC,ANKRD13B,0.5779
UUUCUGAAUGGAAAUCAGG,ETV4,-0.01003
AAGUUUGGGACAUAGGUGG,AEN,0.9039
GACUGUUCAAGUUAUGUUU,HLA-DQA1,0.1946
UUUCAGACCAUGUCAUUGU,RGS21,-0.5395
UAAAGUAAAAAGAGCAGUU,U2AF1L4,0.5448
UUUUUGCACACGUUCUUUC,BTN2A1,-0.3115
UGAAGUAUAAGUGCUCUGC,C1orf158,-0.03637
UCAGGCACAACGAAUUCGC,GM2A,1.388
UACGGUUCUAGAGAGAGGU,CXCL10,0.6344
UUUAGGUCUUCCUCGAACU,DUSP10,-1.054
UCCUUACUCCGAAUGGUGC,GREM2,-0.2893
UACUCUUUCCCUGAGAGGC,SEMA4F,-0.8274
UAUUCUUUAGGUAAAAUUG,TGFB2-AS1,1.454
UAGGUUUGCAGAAGUCAGG,CHRFAM7A,0.1218
UGACUCUCCAGAACCGCGU,DHH,-0.3116
UUUGCGGCAAGUAUCUAGG,YARS2,-0.7844
UGUGUACACGGCAAACUCC,CST9LP1,0.5951
UGAGGUUUUCGAAUGUCCC,DCAF5,-0.1322
AAAGUUGCAAAGGUGAUGC,GIMAP1,-0.8711
AUUCAUUCUACUUGGAUUG,ECHDC1,0.3026
UCAAGGACAAGUGACUAAG,OR5D13,0.001575
UUAGUCACAAAAGAAUGGU,OR8G5,-0.8366
AUUGAUAUUCCUCAGAUCG,TTLL6,-0.08632
AUGAAGACCAGUACCGAGG,LRFN3,0.5033
UUAAAUGCCCAAUUGAGUU,KCNIP4,0.7518
UUGCGUUUCCUCAGCGUGC,PRKAR1B,0.9011
UGGUGAUUCAAGUAUAGUC,CUZD1,1.084
UCUUUUCUGCGUUAGAAGA,ARHGAP11B,0.02214
UCAGGGAUGGGAGUUGUAC,SLC5A9,0.1503

Once more, the final 3:

| siRNA | target gene | seed-corrected z-score |
|---|---|---|
| `UGGUGAUUCAAGUAUAGUC` | CUZD1 | 1.084 |
| `UCUUUUCUGCGUUAGAAGA` | ARHGAP11B | 0.02214 |
| `UCAGGGAUGGGAGUUGUAC` | SLC5A9 | 0.1503 |